Results from article PMC4226561.
Results are given in words; binding and its absence hold for the method and conditions named. Binding seen in cells or lysates may run through a third protein. Some results given as binding are weak or reduced against the parent protein; the word gives no strength. Tags and fused reporters may be left off the sequences shown.

T1: CESA8, full length, split-YFP (BiFC) fusion (Arabidopsis thaliana) (UniProt Q8LPK5)
T1 sequence: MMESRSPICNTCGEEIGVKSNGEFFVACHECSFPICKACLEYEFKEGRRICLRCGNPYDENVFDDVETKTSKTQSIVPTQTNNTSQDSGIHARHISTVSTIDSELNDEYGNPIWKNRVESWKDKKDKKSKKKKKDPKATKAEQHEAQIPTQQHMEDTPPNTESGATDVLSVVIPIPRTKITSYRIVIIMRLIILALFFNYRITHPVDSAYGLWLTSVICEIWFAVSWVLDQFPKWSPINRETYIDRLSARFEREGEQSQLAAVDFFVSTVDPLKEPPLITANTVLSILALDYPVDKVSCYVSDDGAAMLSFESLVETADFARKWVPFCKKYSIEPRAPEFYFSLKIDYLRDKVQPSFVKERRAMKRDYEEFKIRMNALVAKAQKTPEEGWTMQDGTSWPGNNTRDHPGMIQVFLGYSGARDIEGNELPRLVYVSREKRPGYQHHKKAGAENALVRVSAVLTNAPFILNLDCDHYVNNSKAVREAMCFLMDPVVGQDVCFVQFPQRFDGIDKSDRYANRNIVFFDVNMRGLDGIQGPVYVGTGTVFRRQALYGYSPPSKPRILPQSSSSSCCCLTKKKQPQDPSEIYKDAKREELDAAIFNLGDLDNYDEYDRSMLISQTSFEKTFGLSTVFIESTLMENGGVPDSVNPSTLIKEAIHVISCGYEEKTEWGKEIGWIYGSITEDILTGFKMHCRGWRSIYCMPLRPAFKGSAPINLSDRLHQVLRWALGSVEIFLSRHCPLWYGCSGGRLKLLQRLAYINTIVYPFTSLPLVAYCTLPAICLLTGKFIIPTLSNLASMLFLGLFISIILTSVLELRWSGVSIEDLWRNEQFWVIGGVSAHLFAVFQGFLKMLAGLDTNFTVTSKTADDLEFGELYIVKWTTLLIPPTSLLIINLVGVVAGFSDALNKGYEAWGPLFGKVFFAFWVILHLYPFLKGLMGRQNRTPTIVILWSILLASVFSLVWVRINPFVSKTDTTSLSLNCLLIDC

T2: CESA3, full length, split-YFP (BiFC) fusion (Arabidopsis thaliana) (UniProt Q941L0)
T2 sequence: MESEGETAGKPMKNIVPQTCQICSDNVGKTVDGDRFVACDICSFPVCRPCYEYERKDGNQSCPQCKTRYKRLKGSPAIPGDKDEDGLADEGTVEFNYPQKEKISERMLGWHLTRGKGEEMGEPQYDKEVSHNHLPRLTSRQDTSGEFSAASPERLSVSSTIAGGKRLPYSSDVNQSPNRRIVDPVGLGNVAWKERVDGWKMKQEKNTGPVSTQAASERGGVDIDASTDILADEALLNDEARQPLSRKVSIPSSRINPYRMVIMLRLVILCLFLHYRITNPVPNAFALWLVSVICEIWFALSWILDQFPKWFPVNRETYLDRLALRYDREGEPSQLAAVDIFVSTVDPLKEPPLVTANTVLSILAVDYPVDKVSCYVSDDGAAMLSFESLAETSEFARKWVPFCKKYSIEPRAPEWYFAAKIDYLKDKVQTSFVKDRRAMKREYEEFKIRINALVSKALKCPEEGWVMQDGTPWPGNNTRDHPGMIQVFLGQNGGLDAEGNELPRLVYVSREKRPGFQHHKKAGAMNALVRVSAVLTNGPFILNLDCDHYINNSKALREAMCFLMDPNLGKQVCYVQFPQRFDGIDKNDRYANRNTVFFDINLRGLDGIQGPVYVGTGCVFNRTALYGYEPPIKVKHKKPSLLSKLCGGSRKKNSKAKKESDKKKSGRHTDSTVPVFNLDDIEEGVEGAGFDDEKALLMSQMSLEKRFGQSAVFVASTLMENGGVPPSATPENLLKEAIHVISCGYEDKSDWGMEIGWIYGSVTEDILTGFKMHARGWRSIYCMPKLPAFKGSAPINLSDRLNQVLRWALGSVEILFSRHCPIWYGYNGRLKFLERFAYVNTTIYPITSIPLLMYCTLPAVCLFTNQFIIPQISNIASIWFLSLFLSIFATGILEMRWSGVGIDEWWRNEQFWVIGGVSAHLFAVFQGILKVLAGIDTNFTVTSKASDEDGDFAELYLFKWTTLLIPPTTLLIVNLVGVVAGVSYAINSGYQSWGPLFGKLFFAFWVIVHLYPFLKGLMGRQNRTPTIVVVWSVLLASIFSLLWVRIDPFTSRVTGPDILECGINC

B1: KORRIGAN1 (KOR1), full length, split-YFP (BiFC) fusion (protein, UniProt Q38890 1-621)
chain: MYGRDPWGGPLEINTADSATDDDRSRNLNDLDRAALSRPLDETQQSWLLGPTEQKKKKYVDLGCIIVSRKIFVWTVGTLVAAALLAGFITLIVKTVPRHHPKTPPPDNYTIALHKALKFFNAQKSGKLPKHNNVSWRGNSGLQDGKGETGSFYKDLVGGYYDAGDAIKFNFPMAYAMTMLSWSVIEYSAKYEAAGELTHVKELIKWGTDYFLKTFNSTADSIDDLVSQVGSGNTDDGNTDPNDHYCWMRPEDMDYKRPVTTCNGGCSDLAAEMAAALASASIVFKDNKEYSKKLVHGAKVVYQFGRTRRGRYSAGTAESSKFYNSSMYWDEFIWGGAWMYYATGNVTYLNLITQPTMAKHAGAFWGGPYYGVFSWDNKLAGAQLLLSRLRLFLSPGYPYEEILRTFHNQTSIVMCSYLPIFNKFNRTNGGLIELNHGAPQPLQYSVNAAFLATLYSDYLDAADTPGWYCGPNFYSTSVLRDFARSQIDYILGKNPRKMSYVVGFGTKYPRHVHHRGASIPKNKVKYNCKGGWKWRDSKKPNPNTIEGAMVAGPDKRDGYRDVRMNYNYTEPTLAGNAGLVAALVALSGEEEATGKIDKNTIFSAVPPLFPTPPPPPAPWKP
B2: KOR1N (AA 1 to 94), split-YFP (BiFC) fusion (domain or fragment, UniProt Q38890 1-94)
chain: MYGRDPWGGPLEINTADSATDDDRSRNLNDLDRAALSRPLDETQQSWLLGPTEQKKKKYVDLGCIIVSRKIFVWTVGTLVAAALLAGFITLIVK
B3: KOR1C (AA 70 to 621), split-YFP (BiFC) fusion (domain or fragment, UniProt Q38890 70-621)
chain: KIFVWTVGTLVAAALLAGFITLIVKTVPRHHPKTPPPDNYTIALHKALKFFNAQKSGKLPKHNNVSWRGNSGLQDGKGETGSFYKDLVGGYYDAGDAIKFNFPMAYAMTMLSWSVIEYSAKYEAAGELTHVKELIKWGTDYFLKTFNSTADSIDDLVSQVGSGNTDDGNTDPNDHYCWMRPEDMDYKRPVTTCNGGCSDLAAEMAAALASASIVFKDNKEYSKKLVHGAKVVYQFGRTRRGRYSAGTAESSKFYNSSMYWDEFIWGGAWMYYATGNVTYLNLITQPTMAKHAGAFWGGPYYGVFSWDNKLAGAQLLLSRLRLFLSPGYPYEEILRTFHNQTSIVMCSYLPIFNKFNRTNGGLIELNHGAPQPLQYSVNAAFLATLYSDYLDAADTPGWYCGPNFYSTSVLRDFARSQIDYILGKNPRKMSYVVGFGTKYPRHVHHRGASIPKNKVKYNCKGGWKWRDSKKPNPNTIEGAMVAGPDKRDGYRDVRMNYNYTEPTLAGNAGLVAALVALSGEEEATGKIDKNTIFSAVPPLFPTPPPPPAPWKP
B4: KOR1TMD (AA 70 to 94), split-YFP (BiFC) fusion (domain or fragment, UniProt Q38890 70-94)
chain: KIFVWTVGTLVAAALLAGFITLIVK

The binders below were run against T1, CESA8, full length, split-YFP (BiFC) fusion (Arabidopsis thaliana) (assay: split reporter; BiFC: Y/N and Y/C fragments of YFP each linked to the N-terminus of the proteins, transiently expressed in leaves of 3-week-old N. benthamiana; YFP fluorescence by confocal microscopy 3 days after infiltration).

Binder | binding
B1 | binds
B2 | binds
B3 | binds
B4 | binds

What follows are binders tested against T2, CESA3, full length, split-YFP (BiFC) fusion (Arabidopsis thaliana) in the same assay as above.

Binder | binding
B1 | binds
B2 | binds
B3 | binds
B4 | binds
